# In PubChem BioAssay AID1671190 (National Center for Advancing Translational Sciences (NCATS), 2021):
# Protein sequences, listed by entry. Tags and fused reporters are not part of them. Lines headed by an entry give the natural chain unless they say otherwise; changes in a name come on top.
# UniProt P18054: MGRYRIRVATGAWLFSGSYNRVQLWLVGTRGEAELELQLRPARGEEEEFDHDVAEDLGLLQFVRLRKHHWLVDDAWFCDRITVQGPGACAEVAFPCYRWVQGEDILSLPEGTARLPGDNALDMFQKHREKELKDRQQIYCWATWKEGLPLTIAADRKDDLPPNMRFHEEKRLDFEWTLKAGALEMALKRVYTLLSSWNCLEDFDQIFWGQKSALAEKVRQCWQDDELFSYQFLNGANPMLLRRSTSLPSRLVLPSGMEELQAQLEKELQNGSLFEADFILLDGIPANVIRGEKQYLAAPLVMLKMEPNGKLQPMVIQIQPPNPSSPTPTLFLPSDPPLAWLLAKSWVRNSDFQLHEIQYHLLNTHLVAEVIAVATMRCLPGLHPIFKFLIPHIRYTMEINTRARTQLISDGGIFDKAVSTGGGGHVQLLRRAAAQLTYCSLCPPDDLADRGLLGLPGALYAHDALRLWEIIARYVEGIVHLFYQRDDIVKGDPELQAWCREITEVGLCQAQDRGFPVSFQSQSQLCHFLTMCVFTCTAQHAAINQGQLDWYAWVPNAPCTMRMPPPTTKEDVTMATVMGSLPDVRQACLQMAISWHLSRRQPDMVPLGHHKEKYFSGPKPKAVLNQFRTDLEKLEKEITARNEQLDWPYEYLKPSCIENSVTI
# Hit rate of the full screen: of about 580,000 compounds, about 6,100 (1.1%) were called active. The inconclusive results got no clear call from the source; some entries with a clear call stand among them for comparison. Calls follow the shape of the dose curve; as a rule, active = well fitted inhibition curve with a large enough effect; inconclusive = small, poorly fitted or top-dose-only effect, or another doubt; inactive = no such curve, though single readings can be large or run the other way. A potency beside an inconclusive call is a rough fit, not a confirmed value.
# Target: Polyunsaturated fatty acid lipoxygenase ALOX12 (Homo sapiens) (UniProt P18054)
# Experiment: Primary qHTS assay for inhibitors of human arachidonate 12S-lipoxygenase (ALOX12): Round 2
# Conditions: purified 12hLO, xylenol orange hydroperoxide absorbance; series mostly up to 108 µM
# Outline: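 Purified human 12hLO at 150 nM in 25 mM Hepes, 0.01% Triton X-100, pH 7.0, preincubated 15 min at room temperature with compound. Reaction started with 40 uM arachidonic acid, 30 min at room temperature. Hydroperoxide measured by Fe-xylenol orange, 573/405 nm absorbance ratio.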
# Potency is read from the fitted curve at half-maximal effect.
row,Structure (SMILES),Potency
1,CC(C)(C)OC(=O)[C@H](Cc1ccccc1)NC(=O)c1ncn2c1c(=O)[nH]c1ccc(Br)cc12,"inconclusive: 44.7 µM [inhibitor, partial curve, poor fit]"
2,Cc1c(NC(=O)CS(=O)(=O)c2ccccc2)c(=O)n(-c2ccccc2)n1C,inactive
3,CCCCNS(=O)(=O)c1cc(-c2nn(C)c(=O)c3ccccc23)ccc1C,"inconclusive: 100 µM [inhibitor, partial curve, poor fit]"
4,CCc1ccc(-c2cc(C)no2)cc1S(=O)(=O)Nc1ccc(C)cn1,"inconclusive: 39.8 µM [inhibitor, partial curve, poor fit]"
5,Fc1cccc(F)c1/C=N/NC(=S)Nc1ccc(Cl)c(Cl)c1,"inconclusive: 39.8 µM [inhibitor, partial curve, poor fit]"
6,COCCCn1c(C2CCCCC2)nc2oc3cc(OC)ccc3c(=O)c2c1=O,"inconclusive: 158 µM [inhibitor, partial curve, poor fit]"
7,O=C(Nc1ccc(=O)n2c1[C@@H]1C[C@@H](CN(C(=O)COc3ccccc3)C1)C2)c1cncnc1,"inconclusive: 12.6 µM [inhibitor, full curve, poor fit]"
8,Cc1ccc(C(=O)N2CCCC3(CCNCC3)CC2)cc1Cl,"inconclusive: 25.1 µM [inhibitor, partial curve, poor fit]"
9,Cc1ccc(C)n1-c1cccc(C(=O)Nc2ccccc2)c1,inactive
10,O=C(c1cccc2cccc(O)c12)N1CCCCC1,"inconclusive: 112 µM [inhibitor, single point]"
11,CNC(=O)C1CCN(Cc2cc3ccccc3n2Cc2cccc(C)c2)CC1,"inconclusive: 112 µM [inhibitor, partial curve, poor fit]"
12,COc1cccc(Nc2nc(-c3ccccc3)cs2)c1,active: 1 µM
13,COC(=O)[C@H](CC(C)C)NC(=O)c1cc2c(cn1)[nH]c1ccccc12,"inconclusive: 89.1 µM [inhibitor, partial curve, poor fit]"
14,Cc1csc(NC(=O)CNC(=O)c2ccoc2)n1,inactive
15,CCCC(=O)Nc1ccc(Cl)c(NC(=O)c2ccc(OCC)cc2)c1,"inconclusive: 22.4 µM [inhibitor, partial curve, poor fit]"
16,CC(=O)Nc1nc2ccccc2n1CCOc1ccccc1,inactive
17,CC(=O)c1ccc(C(=O)N(Cc2cccs2)Cc2cccs2)s1,"inconclusive: 31.6 µM [inhibitor, partial curve, poor fit]"
18,COc1ccc(/C=C/c2ccc3ccccc3n2)cc1O,"inconclusive: 8.91 µM [inhibitor, full curve, poor fit]"
19,Cc1nc(C)c(-c2csc(NCCc3ccccc3)n2)s1,active: 5.01 µM
20,CCc1ccccc1Nc1ncnc2c1cnn2-c1ccc(Cl)cc1,"inconclusive: 56.2 µM [inhibitor, partial curve, poor fit]"
21,C=CCc1ccc(OCCCOc2ccc(C)c(C)c2)c(OC)c1,"inconclusive: 100 µM [inhibitor, single point]"
22,CCCNc1nc2ccccc2nc1C(=O)Nc1cccc(C)c1C,"inconclusive: 158 µM [inhibitor, partial curve, poor fit]"

# A second format for 2 compounds above.
row | Structure (SMILES) | Potency
9 | Cc1ccc(C)n1-c1cccc(C(=O)Nc2ccccc2)c1 | inactive
10 | O=C(c1cccc2cccc(O)c12)N1CCCCC1 | inconclusive: 112 µM [inhibitor, single point]

# (continued)

row,Structure (SMILES),Potency
1,OC(CNCCc1ccc(C(F)(F)F)cc1)COc1ccc2ccccc2c1 (stereo not given),"inconclusive: 56.2 µM [inhibitor, partial curve, poor fit]"
2,CCOc1ccc(CCNC(=O)c2ccc(CS(=O)(=O)c3ccccc3C)o2)cc1OCC,inactive
3,CC[C@@]1(C(=O)OC)N[C@H](CN(C)C(C)=O)[C@@H]2C(=O)N(Cc3ccccc3)C(=O)[C@@H]21,"inconclusive: 89.1 µM [inhibitor, partial curve, poor fit]"
4,C=CCNc1nc(C(=O)OCC(=O)Nc2ccc(S(N)(=O)=O)cc2)cs1,inactive
5,CSCCC(NS(=O)(=O)c1cccs1)C(=O)Nc1ccc(C)c(Cl)c1 (stereo not given),active: 50.1 µM
6,CCc1cc(C(=O)Nc2sc(Cc3ccccc3)cc2C(N)=O)cs1,"inconclusive: 10 µM [inhibitor, full curve, poor fit]"
7,COC(=O)c1ccc(Cn2c(SCC(=O)NCc3ccccc3)nc3ccccc32)cc1,"inconclusive: 112 µM [inhibitor, partial curve, poor fit]"
8,CCO[C@H]1OC(C(=O)NCc2nc3ccccc3[nH]2)=C[C@@H](C2CCCCC2)[C@@H]1CCCO,inactive
9,N#CC1=C(N)Oc2c(c(=O)[nH]c3ccccc23)C1c1ccccc1 (stereo not given),"inconclusive: 1.58 µM [inhibitor, full curve, poor fit]"
10,CC(C)c1ccc(OCC(O)CN2CCN(c3ccccn3)CC2)cc1 (stereo not given),"inconclusive: 35.5 µM [inhibitor, partial curve, poor fit]"
11,Cc1ccc2nc(-c3cc(C)sc3C)cc(C(=O)O)c2c1,"inconclusive: 11.2 µM [inhibitor, partial curve, poor fit]"
12,COc1ccc(OC)c(NC(=O)Cc2c(C)n(C(=O)c3ccc(Cl)cc3)c3ccc(OC)cc23)c1,"inconclusive: 17.8 µM [inhibitor, full curve, poor fit]"
13,O=C(c1cccs1)N(Cc1ccccc1)Cc1ccccc1,inactive
14,CCC(=O)c1ccc(OCc2cn(CC(=O)c3ccc(O)cc3)nn2)cc1,"inconclusive: 1.12 µM [inhibitor, partial curve, poor fit]"
15,COc1ccc(C2(c3ccc(OC)cc3)NC(=O)N(CC(=O)Nc3ccccc3)C2=O)cc1,"inconclusive: 89.1 µM [inhibitor, partial curve, poor fit]"
16,Cc1ccccc1-c1ccc(CN2C(C)C(=O)N(Cc3cn(Cc4ccco4)nn3)CCS2(=O)=O)cc1 (stereo not given),"inconclusive: 44.7 µM [inhibitor, partial curve, poor fit]"
17,N#C/C(=C/c1ccncc1)C(=O)NCCc1ccccc1,"inconclusive: 35.5 µM [inhibitor, partial curve, poor fit]"
18,O=C(Nc1ccccc1)c1occc1-c1ccccc1,inactive
19,CC(=C/c1ccccc1)/C=N/NC(=S)NC1CCCCC1,inactive
20,CCc1cc(-c2n[nH]c(=S)n2Cc2ccccc2)cs1,"inconclusive: 17.8 µM [inhibitor, partial curve]"
21,O=C1c2cccnc2C(=O)N1Cc1ccc(S(=O)(=O)N2CCN(c3ccc(Cl)cc3)CC2)cc1,"inconclusive: 10 µM [inhibitor, partial curve, poor fit]"
22,CCc1ccc(-n2c(Cn3nc(C(F)(F)F)cc3C)n[nH]c2=S)cc1,"inconclusive: 17.8 µM [inhibitor, partial curve, poor fit]"

row,Structure (SMILES),Potency
1,Cc1ccccc1/C=C/c1ccc2ccccc2n1,"inconclusive: 0.224 µM [inhibitor, full curve, poor fit]"
2,Cc1cccc(NC(=O)c2ccc3[nH]c(C)c(C)c3c2)c1C,"inconclusive: 35.5 µM [inhibitor, single point]"
3,CCN1CCOC(=O)C1CC(=O)Nc1ccc(C(C)=O)cc1 (stereo not given),inactive
4,CCn1nc(C)c(CNC(=O)CC2C(=O)NCCN2CC(C)(C)C)c1C (stereo not given),inactive
5,C[C@@H]1CN([C@H](C)CO)C(=O)c2cc(Br)cnc2O[C@@H]1CN(C)Cc1ccc(-c2ccccc2)cc1,"inconclusive: 89.1 µM [inhibitor, single point]"
6,O=C(Cc1cccc(C(F)(F)F)c1)OCC(=O)N1CCN(S(=O)(=O)c2ccc(Cl)cc2)CC1,"inconclusive: 126 µM [inhibitor, partial curve, poor fit]"
7,COc1ccc(-c2nc3cnc(N4CCN(C)CC4)nc3n(CCc3ccccc3)c2=O)cc1,"inconclusive: 35.5 µM [inhibitor, partial curve, poor fit]"
8,Cc1ccc(NC2CCCN(C(=O)CSc3ccccn3)C2)cc1C (stereo not given),"inconclusive: 39.8 µM [inhibitor, partial curve, poor fit]"
9,COc1ncc(CN2CCc3c(n(Cc4cccnc4)n(-c4ccccc4)c3=O)C2)cn1,"inconclusive: 50.1 µM [inhibitor, partial curve]"
10,Nc1ccc2cc3[nH]c4cc(N)ccc4c3nc2c1,"inconclusive: 89.1 µM [inhibitor, single point]"
11,CC1=C(C(=O)N(C)C)CC(CC(=O)NCCCN(C)C)C(=O)N1CCCN1CCCC1=O (stereo not given),"inconclusive: 50.1 µM [inhibitor, partial curve, poor fit]"
12,Cc1cccc(-c2nc(C#N)c(NCc3ccccc3)o2)c1,active: 50.1 µM
13,CC(=O)Oc1cc(C)c(OC(C)=O)c2ccccc12,inactive
14,COc1cccc(OCC(=O)NN=C2c3ccccc3-c3ccccc32)c1,"inconclusive: 126 µM [inhibitor, partial curve, poor fit]"
15,CCN1CCCC1Cn1cnc2c([nH]c3ccc(Cl)cc32)c1=O (stereo not given),"inconclusive: 112 µM [inhibitor, partial curve, poor fit]"
16,COC(=O)C1=C(C)N=C2SC(C#N)=C(N)N2C1c1ccc(OCc2ccccc2)cc1 (stereo not given),inactive
17,CC(=O)Nc1ccc(NC(=O)CCC(=O)c2ccc(C)cc2)cc1,"inconclusive: 70.8 µM [inhibitor, partial curve, poor fit]"
18,O=C(c1ccc(Br)cc1)c1coc2ccc(O)cc12,active: 22.4 µM
19,CCN(CC)C(=O)COc1ccc(N(C)S(=O)(=O)c2ccc(NC(C)=O)cc2)cc1,inactive
20,CC(C)N1C(=O)C(CC(=O)NCC2CCN(Cc3cccc(F)c3)CC2)=C2CCCCC21 (stereo not given),inactive
21,CC[n+]1c(/C=C/c2c[nH]c3ccccc23)ccc2cc(C)ccc21,"inconclusive: 44.7 µM [inhibitor, partial curve, poor fit]"
